Publication PMC9010760

Amino acid sequences for entries named in this document (tags omitted). A change or cut given only in a name is not applied to a line headed by its entry. Chains listed by the source or under a name are the forms on record and can include a tag or linker.
UniProt Q9HBA0: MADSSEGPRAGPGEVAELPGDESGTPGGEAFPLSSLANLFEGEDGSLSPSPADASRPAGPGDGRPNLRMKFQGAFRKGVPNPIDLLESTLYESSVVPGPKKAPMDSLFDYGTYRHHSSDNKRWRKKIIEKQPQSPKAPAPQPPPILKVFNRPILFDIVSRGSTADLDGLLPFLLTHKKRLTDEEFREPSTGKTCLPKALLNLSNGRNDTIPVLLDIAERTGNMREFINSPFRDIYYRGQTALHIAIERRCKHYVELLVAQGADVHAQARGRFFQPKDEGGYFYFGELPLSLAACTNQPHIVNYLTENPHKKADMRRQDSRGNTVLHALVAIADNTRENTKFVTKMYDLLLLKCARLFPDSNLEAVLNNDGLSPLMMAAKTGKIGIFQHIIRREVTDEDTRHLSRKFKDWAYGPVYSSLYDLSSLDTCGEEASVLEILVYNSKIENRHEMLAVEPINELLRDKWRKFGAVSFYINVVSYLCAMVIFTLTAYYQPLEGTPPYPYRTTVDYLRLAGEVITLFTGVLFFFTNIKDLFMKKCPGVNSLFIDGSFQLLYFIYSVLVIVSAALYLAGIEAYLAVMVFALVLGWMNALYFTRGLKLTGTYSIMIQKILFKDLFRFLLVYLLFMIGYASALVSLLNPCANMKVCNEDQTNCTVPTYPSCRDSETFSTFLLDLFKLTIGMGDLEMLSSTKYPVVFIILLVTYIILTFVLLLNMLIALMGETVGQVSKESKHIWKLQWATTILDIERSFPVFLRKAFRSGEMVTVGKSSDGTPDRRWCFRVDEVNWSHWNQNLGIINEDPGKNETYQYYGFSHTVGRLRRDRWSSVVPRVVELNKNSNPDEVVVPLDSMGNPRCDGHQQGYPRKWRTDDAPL
TRPV4 5K-IDR mutant (Lys 77, 101, 130, 136 and 147 to arginine) (Q9HBA0, form named): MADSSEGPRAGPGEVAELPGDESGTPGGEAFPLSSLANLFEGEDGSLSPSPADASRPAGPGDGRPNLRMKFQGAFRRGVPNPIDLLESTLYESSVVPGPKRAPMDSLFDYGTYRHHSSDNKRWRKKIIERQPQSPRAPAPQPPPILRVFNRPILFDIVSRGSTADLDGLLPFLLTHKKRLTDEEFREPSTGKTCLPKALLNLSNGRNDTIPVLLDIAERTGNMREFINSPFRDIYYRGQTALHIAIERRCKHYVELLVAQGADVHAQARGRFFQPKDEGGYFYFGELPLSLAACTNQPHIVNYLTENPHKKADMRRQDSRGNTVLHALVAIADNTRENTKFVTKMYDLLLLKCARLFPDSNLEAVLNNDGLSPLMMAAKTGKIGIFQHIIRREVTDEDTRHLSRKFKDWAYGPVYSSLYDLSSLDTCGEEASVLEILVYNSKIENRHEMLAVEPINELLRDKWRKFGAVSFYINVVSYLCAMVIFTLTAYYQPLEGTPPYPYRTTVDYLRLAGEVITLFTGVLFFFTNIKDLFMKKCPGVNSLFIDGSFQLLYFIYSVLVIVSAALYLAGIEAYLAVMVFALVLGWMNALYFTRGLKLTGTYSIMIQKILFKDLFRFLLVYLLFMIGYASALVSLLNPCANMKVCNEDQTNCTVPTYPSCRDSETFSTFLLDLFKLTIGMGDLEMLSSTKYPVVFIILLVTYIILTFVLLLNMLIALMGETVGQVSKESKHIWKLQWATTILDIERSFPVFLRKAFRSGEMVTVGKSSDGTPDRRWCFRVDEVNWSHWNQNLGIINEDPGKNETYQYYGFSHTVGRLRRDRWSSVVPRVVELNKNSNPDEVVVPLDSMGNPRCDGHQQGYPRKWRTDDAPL
UniProt P61586: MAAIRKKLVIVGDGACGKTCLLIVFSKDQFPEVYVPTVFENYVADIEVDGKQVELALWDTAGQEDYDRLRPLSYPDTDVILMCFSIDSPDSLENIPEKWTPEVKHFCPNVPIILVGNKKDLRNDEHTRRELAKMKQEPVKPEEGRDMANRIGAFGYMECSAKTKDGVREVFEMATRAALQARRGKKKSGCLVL

Columns and labels:
[1] = molecular target: C-terminally FLAG-tagged TRPV4 (transient receptor potential vanilloid 4), WT (human) (UniProt Q9HBA0); test: co-IP; HEK293T cells cotransfected with TRPV4 (WT or mutant) and Myc-tagged E3 ligase; lysed 24 h post-transfection in RIPA buffer with protease/phosphatase inhibitors and PR-619; supernatant incubated 1 h at 4 °C with Dynabeads Protein G preconjugated with anti-FLAG M2 antibody; washed with 0.2% Tween-20 in PBS; Western blot
[2] = molecular target: TRPV4 5K-IDR mutant (Lys 77, 101, 130, 136 and 147 to arginine) (human) (UniProt Q9HBA0); test: as above
[3] = molecular target: TRPV4 5K-CTD mutant (all five lysines of the C-terminal IDR to arginine) (human) (UniProt Q9HBA0); test: as above
[4] = molecular target: TRPV4 R269C (neuropathy-causing mutant) (human) (UniProt Q9HBA0); test: as above
[5] = molecular target: TRPV4 5K-CTD mutant (all five lysines of the C-terminal IDR to arginine) (human) (UniProt Q9HBA0); test: co-IP; co-IP of PACSIN1 or RhoA with WT and K>R mutant TRPV4 (Fig. S5, H-J); cells, antibody and conditions not stated for this experiment in the text shown

binding [1]	binding [2]	binding [3]	binding [4]	binding [5]	Substance
binds	binds	binds	binds		Myc-tagged NEDD4 (from UniProt P46934-4) (enzyme)
				binds	RhoA-Myc (from UniProt P61586 1-193)

No constants are given. Whether binding was seen depends on the method and setting. In cells and extracts the contact can be indirect. Binding can be weak; no strength is given.
